Data set [1] has as its target T1, GST-ZC3H7B(415-956) (UniProt Q9UGR2).
T1 sequence (looked up): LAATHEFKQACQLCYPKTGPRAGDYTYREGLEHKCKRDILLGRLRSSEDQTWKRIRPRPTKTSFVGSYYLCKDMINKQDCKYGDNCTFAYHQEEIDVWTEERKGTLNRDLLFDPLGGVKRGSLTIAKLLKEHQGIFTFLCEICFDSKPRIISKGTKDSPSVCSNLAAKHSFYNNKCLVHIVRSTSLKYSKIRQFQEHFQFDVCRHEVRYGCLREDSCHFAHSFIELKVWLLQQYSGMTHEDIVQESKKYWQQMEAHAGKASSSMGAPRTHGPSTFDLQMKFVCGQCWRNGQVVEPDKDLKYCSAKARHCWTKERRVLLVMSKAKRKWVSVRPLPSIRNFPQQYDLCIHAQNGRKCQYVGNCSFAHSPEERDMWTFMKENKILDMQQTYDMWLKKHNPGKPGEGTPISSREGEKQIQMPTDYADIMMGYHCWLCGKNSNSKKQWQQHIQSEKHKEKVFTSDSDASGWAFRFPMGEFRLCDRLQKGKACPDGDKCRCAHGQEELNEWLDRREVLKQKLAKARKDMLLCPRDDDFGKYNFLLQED
Briefly: filter binding. Particulars: Filter binding: 50 mM Tris-HCl pH 8.0, 150 mM NaCl, 5% glycerol, 20 C; recombinant protein; residues 415-956; protein details: N-terminal GST (pGEX-4T-1, TEV site); label: 5' 32P.

The subject of data set [2] is PfuSmAP1-Strep (Pyrococcus furiosus). Briefly: EMSA. Particulars: 40 mM EDTA, 70 C, 0-400 nM heptamer, EMSA: 20 mM HEPES-KOH pH 7.4, 100 mM NaCl, 1 mM MgCl2, 0.1% Tween20, 40 mM EDTA, 10% glycerol, recombinant protein, protein details: C-terminal StrepII, label: 5' HEX.
In data set [3] the target is T2, FH-ZC3H7B (UniProt Q9UGR2).
T2 sequence (looked up): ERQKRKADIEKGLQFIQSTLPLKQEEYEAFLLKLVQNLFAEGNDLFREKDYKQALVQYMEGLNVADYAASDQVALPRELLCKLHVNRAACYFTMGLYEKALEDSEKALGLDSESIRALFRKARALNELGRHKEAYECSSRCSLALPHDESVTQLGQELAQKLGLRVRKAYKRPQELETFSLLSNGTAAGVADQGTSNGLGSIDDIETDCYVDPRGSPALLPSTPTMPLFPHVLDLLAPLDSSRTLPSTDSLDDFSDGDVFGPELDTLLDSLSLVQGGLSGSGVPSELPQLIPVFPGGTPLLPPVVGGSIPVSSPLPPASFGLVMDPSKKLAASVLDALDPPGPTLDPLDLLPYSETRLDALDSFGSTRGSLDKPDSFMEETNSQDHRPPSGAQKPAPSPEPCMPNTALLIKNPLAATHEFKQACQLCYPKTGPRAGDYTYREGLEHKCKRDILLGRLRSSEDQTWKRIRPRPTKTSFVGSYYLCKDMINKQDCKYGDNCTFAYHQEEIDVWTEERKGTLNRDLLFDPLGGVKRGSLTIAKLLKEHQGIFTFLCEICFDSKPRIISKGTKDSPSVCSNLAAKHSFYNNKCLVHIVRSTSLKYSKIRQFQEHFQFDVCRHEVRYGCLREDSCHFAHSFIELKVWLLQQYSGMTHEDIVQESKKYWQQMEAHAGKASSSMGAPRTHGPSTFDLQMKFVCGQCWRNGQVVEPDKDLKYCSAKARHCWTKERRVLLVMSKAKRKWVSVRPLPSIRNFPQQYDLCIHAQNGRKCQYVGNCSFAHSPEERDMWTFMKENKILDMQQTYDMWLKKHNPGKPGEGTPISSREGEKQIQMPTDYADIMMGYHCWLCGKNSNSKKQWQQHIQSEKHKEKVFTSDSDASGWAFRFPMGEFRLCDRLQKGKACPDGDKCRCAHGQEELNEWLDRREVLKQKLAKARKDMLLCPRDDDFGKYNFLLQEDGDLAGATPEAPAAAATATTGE
Nature of the data set: competition with a labelled probe. The note with it: unlabeled, 1-4 pmol, EMSA: 20 mM HEPES-KOH pH 7.4, 100 mM NaCl, 1 mM MgCl2, 0.1% Tween20, 40 mM EDTA, 10% glycerol, 70 C, protein in a lysate after overexpression, residues 2-977, protein details: N-terminal FLAG-HA, label: 32P (or unlabeled as competitor), letters put together from the description.

For data set [4], the target named is T2, FH-ZC3H7B. Briefly: pull-down. The note with it: 32P-RNA 1 pmol on FLAG beads; protein in a lysate after overexpression; residues 2-977; protein details: N-terminal FLAG-HA; label: 32P (or unlabeled as competitor); letters put together from the description.

For some of these results: The comparison behind a weaker result is the experiment's own reference, which may not be listed here. For some of these results: Where a protein sequence is shown, tags need not be part of it. For some of these results: For at least one entry, the source does not settle the construct or the ends of the probe. For some of these results: A negative result means that nothing was seen under these conditions. For some of these results: Where cells or extracts were used, other partners may take part.

For the sequence AAAGUGAAGU [ZC3H7B mutant motif RNA], the binding result in data set [1] is given as “binds more weakly”.
“GAACCCCCCCCCAAUGAAC [C-rich control RNA]”: in data set [2], the binding result is recorded as “no binding”.
Regarding GAAUUUGAGUUUAAUGAAC [SmAP1 motif RNA], the binding result in data set [2] was “binds”.
With “GGGACACACACACAGUUUCGACACACACAC [ZC3H7B Motif 1 (AGUUUCG)]”, the binding result in data set [3] (against labeled Motif 2, competes less than Motif 2) is recorded as “binds more weakly”; in data set [4] it was “binds”.
“GGGACACACACACAUAGAUACACACACAC [ZC3H7B Motif 2 (AUAGAU)]”: the binding result is listed as “binds” in data set [3] (against labeled Motif 1, better competitor) and “binds” in data set [4].

The values above are taken from publication PMC11612968, “Endo-bind-n-seq: identifying RNA motifs of RNA binding proteins isolated from endogenous sources”.
